Experimental data reported in paper PMC4068158.

The chains behind the UniProt entries cited, without tags or fusion partners.
UniProt O95292: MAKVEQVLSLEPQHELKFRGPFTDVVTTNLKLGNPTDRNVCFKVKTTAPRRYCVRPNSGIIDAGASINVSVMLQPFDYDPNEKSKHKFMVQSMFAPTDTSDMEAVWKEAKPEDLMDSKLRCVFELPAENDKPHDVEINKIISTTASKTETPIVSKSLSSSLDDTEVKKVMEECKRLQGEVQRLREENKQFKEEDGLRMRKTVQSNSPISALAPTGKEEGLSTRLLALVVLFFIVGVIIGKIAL
UniProt Q9UNN5: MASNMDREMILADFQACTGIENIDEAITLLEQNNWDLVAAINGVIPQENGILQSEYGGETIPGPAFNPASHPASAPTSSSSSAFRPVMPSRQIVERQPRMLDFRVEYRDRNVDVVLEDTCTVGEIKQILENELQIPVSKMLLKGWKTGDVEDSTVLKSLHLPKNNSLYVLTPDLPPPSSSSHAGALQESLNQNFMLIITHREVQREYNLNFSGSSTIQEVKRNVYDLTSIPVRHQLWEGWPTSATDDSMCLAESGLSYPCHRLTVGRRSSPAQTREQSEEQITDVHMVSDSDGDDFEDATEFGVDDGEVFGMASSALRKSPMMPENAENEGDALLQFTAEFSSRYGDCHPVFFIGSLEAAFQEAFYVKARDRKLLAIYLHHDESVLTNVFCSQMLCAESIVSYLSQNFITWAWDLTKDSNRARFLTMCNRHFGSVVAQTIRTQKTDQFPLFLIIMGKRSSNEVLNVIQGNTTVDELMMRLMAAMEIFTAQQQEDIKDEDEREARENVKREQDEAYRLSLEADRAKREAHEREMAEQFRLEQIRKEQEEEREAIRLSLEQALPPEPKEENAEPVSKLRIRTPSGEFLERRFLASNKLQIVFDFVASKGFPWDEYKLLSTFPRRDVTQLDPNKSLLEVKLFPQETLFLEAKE
UniProt O43681: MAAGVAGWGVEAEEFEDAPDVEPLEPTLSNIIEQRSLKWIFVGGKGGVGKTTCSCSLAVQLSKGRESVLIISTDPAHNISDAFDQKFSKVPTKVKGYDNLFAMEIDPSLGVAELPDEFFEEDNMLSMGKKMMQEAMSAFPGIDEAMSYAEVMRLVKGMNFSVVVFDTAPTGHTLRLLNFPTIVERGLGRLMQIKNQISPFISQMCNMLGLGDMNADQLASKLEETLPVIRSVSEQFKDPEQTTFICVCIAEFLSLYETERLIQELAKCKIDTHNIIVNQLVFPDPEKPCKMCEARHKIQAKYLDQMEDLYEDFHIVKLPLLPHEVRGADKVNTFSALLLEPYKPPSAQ

Legend:
[1] = target: Flag-VAPB full length wild type (human) (UniProt O95292); experiment: affinity purification with mass spectrometry; Flag-VAPA or Flag-VAPB immunoprecipitated with anti-Flag beads from U2OS cells; untransfected cells as control
[2] = target: T1, Flag-VAPA wild type (human) (UniProt Q9P0L0); experiment: as above
T1 sequence: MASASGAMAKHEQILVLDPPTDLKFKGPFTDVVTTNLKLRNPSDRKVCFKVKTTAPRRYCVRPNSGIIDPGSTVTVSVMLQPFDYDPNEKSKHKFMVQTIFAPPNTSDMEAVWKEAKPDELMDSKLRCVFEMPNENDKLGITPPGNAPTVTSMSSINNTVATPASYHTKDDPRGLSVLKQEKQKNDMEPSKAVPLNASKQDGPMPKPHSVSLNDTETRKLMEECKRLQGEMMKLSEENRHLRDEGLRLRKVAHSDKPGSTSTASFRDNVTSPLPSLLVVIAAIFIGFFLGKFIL

[3] = target: endogenous VAPB (human cells) (human (endogenous in U2OS, HeLa, SH-SY5Y)) (UniProt O95292); experiment: affinity purification with mass spectrometry; endogenous VAPB immunoprecipitated from HeLa cells; uncoupled Protein A-beads as control
[4] = target: endogenous VAPB (human cells) (human (endogenous in U2OS, HeLa, SH-SY5Y)) (UniProt O95292); experiment: affinity purification with mass spectrometry; SILAC; endogenous VAPB immunoprecipitated from mixed light and heavy U2OS lysates, MG132 for 2 or 6 hr against untreated

Measured: binding

endogenous FAF1 (human cells) (from UniProt Q9UNN5 1-650)
binds: [1] | [2] | [3]

endogenous ASNA1 (human cells) (from UniProt O43681 1-348)
binds: [1] | [2] | [3] | [4]

These are yes or no findings as the source states them, for the method shown. In cells and extracts the contact can be indirect. Here binding means that the protein was enriched with, or labelled near, the bait; the list need not be complete. For some of these results: Sequences can lack the tags named with a protein.
